Measurements published in PubChem BioAssay AID248 (DTP/NCI, 2004).
The list is a part of this screen's results and no random one: it is rich in T/C values a quarter to a half above the control, in often repeated tests (any T/C) and in doses without a T/C. Further doses and runs are listed elsewhere. T/C is the treated group as % of the vehicle group. Some entries give survivors of the animals treated and no T/C: the source holds a T/C of zero for them, seemingly a mark for toxic or unscored doses. Some survivor counts are full or nearly so, which does not show that the dose was tolerated: the source hardly ever lists a survival T/C far under the control, and the zero likely stands for such cases as well. Survivors were counted at the toxicity check, usually on the fifth day, unless a day is given; later deaths do not show. Schedules are NCI's codes, taken here to give the interval after Q, in days (D) or hours (H), and the number of doses after X. Some schedules carry Z or #; the key to these is not given. Where survival is the endpoint, the PubChem record calls one and a half times the control and up active, and a quarter to a half above the control has no call in these data; cut-offs in other NCI protocols can differ. Some entries hold several experiments; their values stand side by side, smallest first.

System: L1210 leukemia ip in BDF1 mice, survival T/C
Assay: NCI In Vivo Anticancer Drug Screen. Data for tumor model L1210 Leukemia (intraperitoneal) in B6D2F1 (BDF1) mice
Details: T/C endpoint: mean survival time, higher T/C = longer survival; for T/C: vehicle: other
[1] = dose: 400.0 mg/kg/injection, schedule: Q04DX003 (ip), vehicle: saline with Tween-80
[2] = dose: 400.0 mg/kg/injection, schedule: Q01DX009 (ip), vehicle: Klucel (hydroxypropylcellulose) (HPC)

## CN=C(NC)NCc1ccccc1
dose: 200.0 mg/kg/injection, schedule: Q01DX001 (ip), vehicle: saline
  survivor count: 1 of 4
dose: 400.0 mg/kg/injection, schedule: Q01DX001 (ip), vehicle: saline
  survivor count: 0 of 4

## CC(C)(CO)NCC1CCCC(CNC(C)(C)CO)C1 (stereo not given)
dose: 200.0 mg/kg/injection, schedule: Q01DX001 (ip), vehicle: carboxymethylcellulose (CMC)
  survivor count: 1 of 4
dose: 400.0 mg/kg/injection, schedule: Q01DX001 (ip), vehicle: carboxymethylcellulose (CMC)
  survivor count: 1 of 4

## CCC(=S)Nc1ccc(Cl)cc1
[1]
  survivor count: 2 of 6

## CN(C)C1=NC(=O)C(c2ccccc2)O1 (stereo not given)
dose: 25.0 mg/kg/injection, schedule: Q04DX003 (ip), vehicle: saline
  survivor count: 4 of 4
dose: 100.0 mg/kg/injection, schedule: Q04DX003 (ip), vehicle: saline
  survivor count: 3 of 4
dose: 400.0 mg/kg/injection, schedule: Q01DX009 (ip), vehicle: saline
  survivor count: 1 of 6

## O=Nc1ccc(O)cc1Br
dose: 100.0 mg/kg/injection, schedule: Q01DX001 (ip), vehicle: Klucel (hydroxypropylcellulose) (HPC)
  survivor count: 3 of 3
dose: 200.0 mg/kg/injection, schedule: Q01DX001 (ip), vehicle: Klucel (hydroxypropylcellulose) (HPC)
  survivor count: 3 of 3

## BrCCN(CCBr)c1ccc2c3c(cccc13)-c1ccccc1-2
dose: 1.5 mg/kg/injection, schedule: Q01DX Z (ip)
  T/C: 131 % of control
dose: 2.0 mg/kg/injection, schedule: Q01DX Z (ip)
  T/C: 131 % of control
dose: 3.0 mg/kg/injection, schedule: Q01DX Z (ip)
  T/C: 133 % of control
dose: 3.2 mg/kg/injection, schedule: Q01DX Z (ip)
  T/C: 140 % of control
dose: 5.0 mg/kg/injection, schedule: Q01DX Z (ip)
  T/C: 127 and 134 % of control
dose: 12.5 mg/kg/injection, schedule: Q01DX009 (ip), vehicle: acetone
  survivor count: 6 of 6
dose: 25.0 mg/kg/injection, schedule: Q01DX009 (ip), vehicle: acetone
  survivor count: 1 of 6
dose: 50.0 mg/kg/injection, schedule: Q01DX009 (ip), vehicle: saline
  survivor count: 6 of 6
dose: 100.0 mg/kg/injection, schedule: Q01DX009 (ip), vehicle: saline
  survivor count: 3 of 6
dose: 200.0 mg/kg/injection, schedule: Q01DX009 (ip), vehicle: saline
  survivor count: 1 of 6
dose: 200.0 mg/kg/injection, schedule: Q04DX003 (ip), vehicle: saline
  survivor count: 4 of 6
dose: 400.0 mg/kg/injection, schedule: Q04DX003 (ip), vehicle: saline
  survivor count: 1 of 6

## C1COC(NC2CC3CCC2C3)=N1 (stereo not given)
dose: 100.0 mg/kg/injection, schedule: Q04DX003 (ip), vehicle: saline with Tween-80
  survivor count: 3 of 6
dose: 200.0 mg/kg/injection, schedule: Q04DX003 (ip), vehicle: saline with Tween-80
  survivor count: 0 of 6
[1]
  survivor count: 0 of 6

## CCOP(=S)(OCC)N1c2ccccc2Sc2ccccc21
[1]
  survivor count: 2 of 6

## CN=C(c1ccc(NC(=O)c2cccc(C(=O)Nc3ccc(C(=NC)N(C)C4CCCCC4)cc3)c2)cc1)N(C)C1CCCCC1
dose: 15.0 mg/kg/injection, schedule: Q01DX Z (ip), vehicle: saline
  survivor count: 0 of 6
dose: 30.0 mg/kg/injection, schedule: Q01DX Z (ip), vehicle: saline
  survivor count: 0 of 6
dose: 60.0 mg/kg/injection, schedule: Q01DX Z (ip), vehicle: saline
  survivor count: 0 of 6
dose: 120.0 mg/kg/injection, schedule: Q01DX Z (ip), vehicle: saline
  survivor count: 0 of 6

## CCc1ccccc1NC(=O)N1CCCCC1C (stereo not given)
[2]
  survivor count: 4 of 6

## O=[N+]([O-])c1ccc2c(c1)-c1ccccc1C2Br (stereo not given)
dose: 200.0 mg/kg/injection, schedule: Q01DX005 (ip), vehicle: Klucel (hydroxypropylcellulose) (HPC)
  survivor count: 2 of 3

## CN1CC(C(=O)NO)C=C2c3cccc4[nH]cc(c34)CC21 (stereo not given)
dose: 400.0 mg/kg/injection, schedule: Q04DX003 (ip), vehicle: alcohol
  survivor count: 0 of 6

## Cc1c(C)c(CN)c(C)c(C)c1CN
[2]
  survivor count: 0 of 6
dose: 400.0 mg/kg/injection, schedule: Q04DX003 (ip), vehicle: Klucel (hydroxypropylcellulose) (HPC)
  survivor count: 2 of 6
